# Data published in PubChem BioAssay AID485314 (National Center for Advancing Translational Sciences (NCATS), 2010).
# About 4,500 (1.3%) of roughly 340,000 compounds were called active. The inconclusive results got no clear call from the source; some entries with a clear call stand among them for comparison. The call rests on the fitted dose curve; in most records, active means well fitted inhibition curve with a large enough effect; inconclusive means small, poorly fitted or top-dose-only effect, or another doubt; inactive means no such curve, though single readings can be large or run the other way. Potencies of inconclusive entries are doubtful fits and often do not repeat.
# Target: DNA polymerase beta (Homo sapiens) (UniProt P06746)
# Assay: qHTS Assay for Inhibitors of DNA Polymerase Beta
# Settings: Pol beta primer extension/strand displacement, fluorescence kinetic; activity change, negative = inhibition: at 114 µM (top of the series)
# Summary of the method: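 Pol beta (10 nM) was preincubated with compound for 15 min at room temperature. The reaction was then started with 50 nM substrate and read immediately and after a further 10 min at room temperature.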
# On the % scale 0 is the no-effect control and ±100 the full control effect; potency means the concentration at half of the fitted maximal effect.
SMILES,Potency,"activity change, negative = inhibition"
Cc1occc1C(=O)Nc1c(Cl)cccc1Cl,"inconclusive: 11.2 µM [inhibitor, full curve]",–
CC(=O)Nc1ccc(S(=O)(=O)N2CCSC2c2ccccc2Cl)cc1 (stereo not given),"inconclusive: 44.7 µM [inhibitor, single point]",–
N#C/C(=C\c1ccc(O)c(O)c1)C(=O)c1ccc(O)c(O)c1,active: 0.0631 µM,–
COc1ccc(NC(=O)CN2C(=O)S/C(=C/c3cccn3-c3ccc(C(=O)O)cc3)C2=O)cc1,–,inconclusive: -108% [inhibitor]
COc1ccc(N2CC(NC(=O)c3ccc4c(c3)OCO4)CC2=O)cc1OC (stereo not given),–,inactive: -2%
O=C(NCc1ccccc1Cl)c1ccc[nH]1,"inconclusive: 20 µM [inhibitor, partial curve]",–
COC(=O)c1ccc(COc2cccc3c2CCN(Cc2ccccc2)C3=O)o1,–,inactive: 3.48%
CC1C(=O)Nc2ccc(S(=O)(=O)Nc3ccccc3Br)cc2NC1=O (stereo not given),"inconclusive: 0.141 µM [inhibitor, full curve, poor fit]",–
O=c1c(Cl)c(NCc2ccccc2)cnn1C12CC3CC(CC(C3)C1)C2,–,inactive: -5.82%
CCCCCC(=O)Nc1ccc(C2C(=O)c3ccccc3C2=O)cc1,"inconclusive: 0.708 µM [inhibitor, full curve, poor fit]",–
CC(/C=N/n1c(-c2ccccc2)n[nH]c1=S)=C\c1ccco1,"inconclusive: 15.8 µM [inhibitor, full curve]",–
Cc1ccc(-c2ccc(=O)n(CC(=O)NCCCN3CCCCC3)n2)cc1,"inconclusive: 39.8 µM [inhibitor, single point]",–
CC(C)c1onc(C(=O)N2CCN(c3ccccc3)CC2)c1[N+](=O)[O-],"inconclusive: 89.1 µM [inhibitor, single point]",–
CCn1c(=O)c2c(n3c(=S)[nH]nc13)-c1ccccc1CC21CCCCC1,–,inactive: 17.9%
Cc1c(C(=O)OCC(C)C)[nH]c2c1C(=O)CC(c1ccco1)C2 (stereo not given),active: 25.1 µM,–
CCCCN(C)CC(O)Cn1cc(/C=C/C(=O)c2ccc(OC)c(OC)c2)c2ccccc21 (stereo not given),"inconclusive: 50.1 µM [inhibitor, partial curve, poor fit]",–
Cc1nn(C)c2ncc(C(=O)c3ccccc3O)cc12,"inconclusive: 100 µM [inhibitor, single point]",–
Nc1nncn1C(=O)c1cc(Br)ccc1Cl,"inconclusive: 89.1 µM [inhibitor, single point]",–
COc1ccc2ccccc2c1/C=N/Nc1ccc(Cl)c(C(=O)O)c1,–,inactive: 4.27%
O=C(C[n+]1ccc(C(=O)c2ccccc2)cc1)Nc1ccc(C(F)(F)F)cc1,"inconclusive: 50.1 µM [inhibitor, partial curve]",–

# One compound at a time (already shown). Order of values: Potency	activity change, negative = inhibition
# CC(C)c1onc(C(=O)N2CCN(c3ccccc3)CC2)c1[N+](=O)[O-] in the list: inconclusive: 89.1 µM [inhibitor, single point]	–
# Cc1nn(C)c2ncc(C(=O)c3ccccc3O)cc12 in the list: inconclusive: 100 µM [inhibitor, single point]	–
